The source of these data is PubChem BioAssay AID493014 (National Center for Advancing Translational Sciences (NCATS), 2011).

This assay is described as follows: qHTS Assay to Find Inhibitors of Chronic Active B-Cell Receptor Signaling. The following applies: ABC-DLBCL IkBa-CBG/CBR reporter, luminescence ratio (green luciferase fused to IkBa over red control in TMD8 lymphoma cells), 4 h. A digest of the protocol:
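TMD8 ABC-DLBCL cells carrying doxycycline-inducible green luciferase fused to IkappaBalpha plus unfused red luciferase were exposed to compounds (up to 46 uM) for 4 hrs at 37C. Activity came from the overlap-corrected green/red luminescence ratio.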
For orientation: Quantitative high-throughput screening tests each substance at several concentrations.

Setting [1] is: measured here: CBR red luminescence, cell number.
The mark [2] stands for this setting: measured here: IkBa-CBG green luminescence.

This is one part of the list. These are further read-outs of the screen, such as a control signal, another cell line or another target. No call is given for them. Most of these compounds were active or inconclusive in the main read-out, so they are no random draw. The note in brackets gives the kind of curve behind each potency; many fits are weak.

`Cc1ccc(NS(=O)(=O)c2cc([N+](=O)[O-])ccc2NNC(=S)Nc2cccc(Cl)c2)c(C)c1`: the AC50 – broadly, the midpoint of the concentration-response curve, whichever way the signal moves – is, setting by setting: under setting [1], 16.4 µM [falling, single point]; under setting [2], 20.6 µM [rising, single point].

Take `COc1ccc(C(=O)Nc2nc3ccccc3[nH]2)cc1`: the AC50 under setting [1] is 1.12 µM [falling, full curve].

As for `CCOC(=O)c1ccc(NC(=O)c2c(NCc3sccc3C)sc3c2CCCCC3)cc1`, the AC50 under setting [1] was 35.5 µM [falling, partial curve, poor fit].

Consider `CC(C)(C)c1ccc(C(=O)NC(Cc2c[nH]c3ccccc23)C(=O)OCC(=O)c2ccccc2)cc1` (stereo unspecified), for which, under setting [1], the AC50 is 8.91 µM [rising, partial curve].

Regarding `CCOC(=O)C1=C(C)NC(=O)NC1c1c(OCC(=O)N2CCCCC2)ccc2ccccc12` (stereo unspecified), under setting [1], the AC50 was 8.91 µM [rising, partial curve, poor fit].

As for `COc1ccc(S(=O)(=O)N2CCOCC2)cc1NC(=O)c1ccc(-n2nc(C)cc2C)cc1`, the AC50 under setting [1] was 0.316 µM [rising, full curve, poor fit].

Take `Cc1n[nH]c(C)c1N1C(=O)c2cccc3c(Br)ccc(c23)C1=O`: the half-maximal activity concentration (AC50) under setting [1] is 2.91 µM [falling, partial curve].

As to `COc1ccccc1/C=C/C=N/N1CCN(c2ccccn2)CC1`, the half-maximal activity concentration (AC50) under setting [1] was 10 µM [falling, partial curve, poor fit].

Consider `O=C1CC(c2ccco2)CC(O)=C1C=NCCN1CCNCC1` (stereo unspecified), for which the AC50 under setting [1] is 0.731 µM [falling, partial curve, poor fit].

As to `Cc1ccc2c(c1)NC(=O)C(CC(=O)NCCCN1CCCCC1C)O2` (stereo unspecified), the concentration at half-maximal activity (AC50) under setting [1] was 6.51 µM [rising, single point].

For the compound `S=c1nc2ccccc2c2nc(-c3cccnc3)[nH]n12`, under setting [1], the AC50 is 1.26 µM [rising, full curve, poor fit].

On to `CC(=O)Nc1cccc(NC(=O)/C=C/c2ccc(S(=O)(=O)N3CCOCC3)cc2)c1`, for which the AC50 under setting [1] was 9.2 µM [falling, partial curve].

For the compound `COC(=O)C1=CN(c2ccc(OC)cc2)C=C(C(=O)OC)C1c1cc(OC)c(OC)cc1OC`, the AC50 under setting [1] was 35.5 µM [rising, single point].

For the compound `COc1ccc(NC(=O)c2cc(C3CC3)nc3c2cnn3C(C)C)cc1OC`, the AC50 under setting [1] is 0.206 µM [rising, full curve, poor fit].

On to `COc1ccc(-c2csc(NC(=O)c3ccccc3S(C)(=O)=O)n2)cc1`, for which, under setting [1], the AC50 is 3.55 µM [rising, full curve, poor fit].

`CCCCn1c(-c2cccc(Br)c2)nc2cc3[nH]c(=O)c(C(C)C)nc3cc21`: the concentration at half-maximal activity (AC50) under setting [1] is 0.891 µM [falling, full curve].

Take `CCc1nnc2c(NCCc3ccc(OC)c(OC)c3)nc3ccccc3n12`: under setting [1], the AC50 was 17.8 µM [rising, partial curve, poor fit].

Turning to `O=C(Cn1cnc2c(nnn2Cc2ccccc2F)c1=O)N1CCN(c2ccccc2)CC1`, under setting [1], the concentration at half-maximal activity (AC50) was 29.1 µM [rising, single point].

In the case of `N#C/C(=C\c1ccc(Cl)cc1)c1nc(-c2ccco2)cs1`, the AC50 under setting [1] was 2.06 µM [rising, partial curve, poor fit].

Consider `CCN(Cc1ccc(OC)c(F)c1)C(=O)CCl`, for which the concentration at half-maximal activity (AC50) under setting [1] is 7.08 µM [falling, partial curve].

`COc1ccc2cc(CN(CC3CCCO3)C(=S)NCc3ccco3)c(=O)[nH]c2c1` (stereo unspecified): the AC50 under setting [1] is 0.447 µM [rising, full curve, poor fit].

As for `CCOc1cccc(CNc2ccc(O)cc2)c1OCc1ccccc1Cl`, the AC50 under setting [1] is 18.4 µM [rising, partial curve].

For the compound `Cc1cc(C)cc(NC(=O)c2cccc(NC3=NC4CS(=O)(=O)CC4S3)c2)c1` (stereo unspecified), the AC50 under setting [1] is 2.82 µM [rising, single point].

`CNC(=S)Nc1cc(OC)ccc1OC`: under setting [1], the concentration at half-maximal activity (AC50) is 6.51 µM [rising, partial curve, poor fit].

Turning to `CCCc1nc2ccccc2c(=O)n1/N=C/c1c(C)[nH]n(-c2ccc(C)cc2)c1=O`, the AC50 under setting [1] is 17.8 µM [falling, single point].

On to `CC1CCC(C(C)C)C(OC(=O)C[n+]2cc(-c3ccc(Cl)cc3)n3c2CCC3)C1` (stereo unspecified), for which the half-maximal activity concentration (AC50) under setting [1] was 17.8 µM [falling, single point].

Turning to `O=C(CNC(=O)c1ccc(Br)o1)Nc1cccc(-c2cnc3ccccc3n2)c1`, under setting [1], the AC50 is 10 µM [rising, partial curve, poor fit].

As to `S=C(Nc1ccccc1)Nc1nc2ccccc2n1CCOc1ccc(Cl)cc1`, the concentration at half-maximal activity (AC50) under setting [1] was 8.2 µM [falling, single point].

On to `COc1cccc(NC(=O)Nc2ccc3nsnc3c2)c1`, for which, under setting [1], the AC50 was 16.4 µM [falling, partial curve].

Turning to `COc1ccc(S(=O)(=O)Nc2ccc3c(c2)n(C)c(=O)n3C)cc1F`, under setting [2], the concentration at half-maximal activity (AC50) is 11.2 µM [falling, partial curve].

Take `CCn1nnc(NC(=O)COc2cc(C)ccc2C(C)C)n1`: the half-maximal activity concentration (AC50) under setting [1] is 16.4 µM [falling, single point].

Take `CSc1nc2sc3c(c2c(=O)n1C)CCC3`: the AC50 under setting [1] is 10 µM [rising, partial curve, poor fit].

Consider `N=C1C(c2ccc(Br)cc2)=C(O)C2CCc3ccccc3N12` (stereo unspecified), for which the AC50 under setting [1] is 7.08 µM [falling, partial curve, poor fit].

`COc1ccc(/C=N/NC(=O)c2ccccc2O)cc1CN1CCOCC1`: the half-maximal activity concentration (AC50) under setting [1] is 11.2 µM [falling, partial curve, poor fit].

Regarding `CCCn1nc2cc(C(=O)NCc3ccccc3)ccc2c1OCC`, under setting [1], the AC50 is 0.631 µM [falling, full curve, poor fit].

On to `O=C(O)c1cc(S(=O)(=O)Nc2ccccc2Cc2ccccc2)ccc1Cl`, for which the AC50 under setting [1] is 3.16 µM [falling, partial curve, poor fit].

For the compound `C=CCn1c(NCc2c[nH]c3ccccc23)nc2ccccc21`, under setting [1], the AC50 is 2.06 µM [falling, partial curve].

On to `O=C(Nc1cccc(O)c1)c1cc(-c2cccs2)on1`, for which, under setting [1], the AC50 is 3.98 µM [falling, partial curve].

Take `CCN(/N=C/C=C/c1ccccc1)c1cc(=O)n(C)c(=O)[nH]1`: the AC50 under setting [1] was 32.6 µM [rising, partial curve, poor fit].

With `CC(=O)c1ccc(-n2nnnc2SCC(=O)Nc2sc(C)c(C)c2C#N)cc1`, the concentration at half-maximal activity (AC50) under setting [1] was 20.6 µM [rising, partial curve, poor fit].
